# Reference: PubChem BioAssay AID540276 (National Center for Advancing Translational Sciences (NCATS), 2011)
# In all, about 300,000 compounds went through this assay and about 5,400 (1.8%) were called active. The inconclusive results got no clear call from the source; some entries with a clear call stand among them for comparison. Calls follow the shape of the full dose curve; tested in HEK293 cells. A potency beside an inconclusive call is a rough fit, not a confirmed value.
# Assay: qHTS for inhibitors of binding or entry into cells for Marburg Virus
# Settings: Marburg virus pseudotyped entry inhibition, cell reporter; series mostly up to 37.8 µM
# Potency is read from the fitted curve at half-maximal effect.
row,Structure (SMILES),Potency
1,COc1ccc(NC(=O)COC(=O)c2c(-c3ccccc3)noc2C)cc1,inactive
2,Cc1cccc(C)c1OC[C@H](O)CNS(=O)(=O)c1ccccc1C(=O)N1CCCCC1,"inconclusive: 16.4 µM [inhibitor, single point]"
3,COc1ccc(NC(=O)CN(C)C(=O)CSCc2c(C)noc2C)cc1,"inconclusive: 3.16 µM [activator, single point]"
4,C=CCn1c(O)c(N=Nc2ccccc2C)c2ccccc21,inactive
5,O=[N+]([O-])c1nc2ccccc2[nH]1,"inconclusive: 3.98 µM [activator, full curve, poor fit]"
6,O=C(NCCCN1CCN(Cc2ccccc2)CC1)c1nnc(Cc2c(F)cccc2Cl)o1,inactive
7,O=S(=O)(Nc1ccc(Cc2ccncc2)cc1)c1ccc(Cl)c(Cl)c1,"inconclusive: 25.9 µM [inhibitor, partial curve, poor fit]"
8,COc1ccc(C2=CSC3=NCCN23)cc1Cl,"inconclusive: 1 µM [inhibitor, full curve, poor fit]"
9,O=C(CNc1cc(S(=O)(=O)N2CCOCC2)ccc1NCC1CCCO1)Nc1cccc(F)c1 (configuration not stated),"inconclusive: 11.2 µM [activator, single point]"
10,COc1cc(/C=C2/N=C(C3CCCCC3)OC2=O)cc(OC)c1OC,inactive
11,CCN(CC(=O)Nc1ccc(NC(C)=O)cc1)C(=O)C1COc2ccccc2O1 (configuration not stated),"inconclusive: 35.5 µM [inhibitor, single point]"
12,Nc1ccc(N2CCCCC2)cc1N1CCCCC1,"inconclusive: 35.5 µM [inhibitor, single point]"
13,Cc1nn(-c2ccccc2)c(C)c1/C=N/NC(=O)c1cc(-c2ccc(Cl)s2)[nH]n1,active: 9.2 µM
14,CCCC(=O)c1ccc(N2CCC(C)CC2)c(F)c1,"inconclusive: 10.3 µM [activator, partial curve]"
15,COc1ccc(S(=O)(=O)N2CCOC2CNC(=O)C(=O)NCCCN2CCOCC2)cc1C (configuration not stated),"inconclusive: 12.6 µM [activator, single point]"
16,CCN1CCN(C(=O)/C=C/c2ccc([N+](=O)[O-])cc2)CC1,"inconclusive: 0.112 µM [activator, full curve, poor fit]"
17,Cc1ccccc1C(=O)Nc1ccccc1-c1nnn(CC(=O)Nc2ccc3c(c2)OCCO3)n1,"inconclusive: 18.3 µM [inhibitor, partial curve, poor fit]"
18,Cc1cc(=O)oc2cc(NC(=O)c3cccc(S(=O)(=O)N(C)C)c3)ccc12,"inconclusive: 20 µM [activator, partial curve, poor fit]"
19,Cc1ncc(CN2CCCC(C(=O)Nc3ccc(-c4cccc(F)c4)cc3)C2)s1 (configuration not stated),"inconclusive: 17.8 µM [inhibitor, single point]"
20,Cc1ccc(C(=O)NN2CCOCC2)cc1,"inconclusive: 0.13 µM [inhibitor, partial curve, poor fit]"
21,CCN(C(=O)c1c(-c2ccccc2Cl)noc1C)C1CCCCC1,"inconclusive: 10 µM [inhibitor, partial curve]"
22,COc1ccc(C(=O)Nc2cccc(C(=O)NCc3ccco3)c2)cc1,inactive
23,COc1ccc(C(=O)Nc2ccc(S(=O)(=O)N(Cc3ccccc3)c3ccccc3)cc2)cc1,"inconclusive: 11.2 µM [inhibitor, partial curve, poor fit]"

row,Structure (SMILES),Potency
1,CCSc1nc2ccccc2n1C(=O)c1ccc(S(=O)(=O)N2CCCCCC2)cc1,"inconclusive: 1.41 µM [inhibitor, single point]"
2,CC(=O)C1=CN(CCC=Cc2ccccc2)C(=O)NC1c1ccccc1 (configuration not stated),"inconclusive: 0.0024 µM [inhibitor, full curve, poor fit]"
3,Cc1cccc(NC(=O)CSc2nnc(CNC(=O)c3ccc(S(=O)(=O)N(C)C)cc3)n2-c2ccccc2)c1,"inconclusive: 4.11 µM [inhibitor, single point]"
4,Cc1cccc(NC(=O)CC2CCC2)c1,inactive
5,CCc1ccc(N(CC(=O)NC(C)C)C(=O)CCC(=O)Nc2ccccn2)cc1,"inconclusive: 3.55 µM [inhibitor, single point]"
6,Cc1ccc2nc(NCc3ccccc3)c(C=NCc3cccnc3)c(=O)n2c1,"inconclusive: 0.891 µM [activator, partial curve, poor fit]"
7,CCCNCC1C(Oc2ccc(Cl)cc2)C(=O)N1c1ccccc1C (configuration not stated),"inconclusive: 29.1 µM [inhibitor, single point]"
8,Cc1cc(/C=N\NC(=O)COc2cccc3cccnc23)c(C)n1-c1ccccc1,"inconclusive: 18.4 µM [inhibitor, single point]"
9,COc1ccc(CCNC(=O)CCc2ccccc2O)cc1OC,inactive
10,Cc1ccc(C(=O)NC2CCc3ccccc3C2=O)cc1 (configuration not stated),"inconclusive: 1.26 µM [activator, single point]"
11,CC(NC(=S)Nc1cccc(C(F)(F)F)c1)C(C)(C)C (configuration not stated),"inconclusive: 11.2 µM [inhibitor, partial curve, poor fit]"
12,COc1ccc(-c2ccc(CCC(=O)O)n2-c2ccccc2O)cc1,inactive
13,CCN(CC)C(=O)Cn1cnc2ccccc2c1=O,inactive
14,Cc1cc(NC(=O)NC2CCCN2S(=O)(=O)c2ccc(Cl)cc2)no1 (configuration not stated),inactive
15,Cc1cccc(NC(=O)CSCC(=O)N=c2sccn2C)c1,"inconclusive: 0.447 µM [activator, full curve, poor fit]"
16,O=C(Nc1ccc(Cl)c([N+](=O)[O-])c1)c1ccncc1,"inconclusive: 6.31 µM [inhibitor, single point]"
17,O=C(NC1=NCCS1)C1CCN(S(=O)(=O)c2cc([N+](=O)[O-])ccc2Cl)CC1,"inconclusive: 6.31 µM [inhibitor, full curve, poor fit]"
18,CCOc1ccc2oc(C(=O)Nc3cc(C)ccn3)c(C)c2c1,"inconclusive: 8.91 µM [inhibitor, partial curve, poor fit]"
19,O=C(c1cc(-c2cccnc2)nc2ccc(Cl)cc12)N1CCN(S(=O)(=O)c2cccs2)CC1,"inconclusive: 7.94 µM [inhibitor, partial curve, poor fit]"
20,CCCCC1CCC(C(=O)N2CCOCC2)CC1 (configuration not stated),"inconclusive: 7.08 µM [inhibitor, partial curve, poor fit]"
21,Cc1ccc2[nH]c(C(=O)N3CCN(C(c4ccccc4)c4ccccc4)CC3)cc2c1,inactive
22,COC(=O)CCC(C(=O)CN1C(=O)c2ccccc2C1=O)N1C(=O)c2ccccc2C1=O (configuration not stated),"inconclusive: 3.55 µM [activator, full curve, poor fit]"
23,O=S(=O)(c1ccc(Cl)c(NC(=S)Nc2ccccc2N2CCOCC2)c1)N1CCOCC1,inactive

row,Structure (SMILES),Potency
1,CCOC(=O)c1ccc2c(c1)n(CC)c(/C=C/Nc1ccccc1)[n+]2CC,"inconclusive: 14.6 µM [inhibitor, partial curve, poor fit]"
2,O=C(N/N=C/c1ccco1)c1ccccn1,"inconclusive: 2.59 µM [activator, single point]"
3,CCCCOC(=O)Nc1cc(Cl)ccc1C,inactive
4,O=C(Nc1ccc(Cl)c(-c2nc3ccccc3[nH]2)c1)c1cccnc1,"inconclusive: 7.3 µM [inhibitor, partial curve]"
5,CCOC(=O)Nc1ccccc1C(=O)Nc1cc(C)cc(C)c1,"inconclusive: 6.31 µM [activator, partial curve, poor fit]"
6,c1ccc(-c2nc(N3CCOCC3)s[n+]2-c2ccccc2)cc1,"inconclusive: 1.12 µM [activator, partial curve, poor fit]"
7,COc1ccc2c3c(cccc13)N(C)N=C2C,inactive
8,COc1ccc(CCNC(=O)c2cc(-c3cc(C)c(C)cc3O)n[nH]2)cc1OC,"inconclusive: 7.3 µM [inhibitor, partial curve]"
9,COc1ccc(Cl)cc1Nc1nc(C)nc2c1nnn2Cc1ccccc1,inactive
10,CC(=NCCN1CCOCC1)C1=C(O)c2ccccc2C1=O,"inconclusive: 35.5 µM [activator, single point]"
11,O=C(O)CC(NC(=O)C12CC3CC(CC(C3)C1)C2)c1ccc2c(c1)OCO2 (configuration not stated),inactive
12,CCOc1ccc(S(=O)(=O)Nc2cc3c(C(=O)OC)c(COC)oc3c3ccccc23)cc1,"inconclusive: 3.16 µM [inhibitor, single point]"
13,O=C(CC12CC3CC(CC(C3)C1)C2)NC(=S)NCc1ccccc1,"inconclusive: 10 µM [inhibitor, partial curve, poor fit]"
14,Cc1ccc(NC(=O)CO/N=C/c2ccc(N(C)C)cc2)cc1,"inconclusive: 35.5 µM [activator, single point]"
15,COc1ccc(-n2c(-c3ccccc3Br)nc3ccccc3c2=O)cc1,inactive
16,Cc1onc(-c2c(F)cccc2Cl)c1C(=O)NCc1cccs1,inactive
17,CCCCn1c(N)c(N(CC(C)C)C(=O)C2=NN(c3cc(C)ccc3C)C(=O)CC2)c(=O)[nH]c1=O,inactive
18,NC(CCC(=O)NCS(=O)(=O)O)C(=O)O (configuration not stated),"inconclusive: 35.5 µM [activator, partial curve]"
19,CCOC(=O)CC(NC(=O)CCc1c(C)nc2c(c1C)c(=O)n(C)c(=O)n2C)c1ccc(OCC)c(OC)c1 (configuration not stated),inactive
20,CCc1ccc2c(COn3nnc4ccc(S(=O)(=O)N(C)C)cc43)cc(=O)oc2c1,"inconclusive: 6.31 µM [inhibitor, single point]"
21,COc1ccc(CN(C)CC(O)COC(c2ccccc2)c2ccccc2)c(OC)c1OC (configuration not stated),"inconclusive: 7.08 µM [inhibitor, partial curve, poor fit]"

# Some of these compounds in order of length of the SMILES, descending.
row,Structure (SMILES),Potency
12,CCOc1ccc(S(=O)(=O)Nc2cc3c(C(=O)OC)c(COC)oc3c3ccccc23)cc1,"inconclusive: 3.16 µM [inhibitor, single point]"
7,O=S(=O)(Nc1ccc(Cc2ccncc2)cc1)c1ccc(Cl)c(Cl)c1,"inconclusive: 25.9 µM [inhibitor, partial curve, poor fit]"
2,O=C(N/N=C/c1ccco1)c1ccccn1,"inconclusive: 2.59 µM [activator, single point]"
